Data published in publication PMC3579733.

Chains of the proteins cited; added tags and fusions are not shown.
UniProt B0R470: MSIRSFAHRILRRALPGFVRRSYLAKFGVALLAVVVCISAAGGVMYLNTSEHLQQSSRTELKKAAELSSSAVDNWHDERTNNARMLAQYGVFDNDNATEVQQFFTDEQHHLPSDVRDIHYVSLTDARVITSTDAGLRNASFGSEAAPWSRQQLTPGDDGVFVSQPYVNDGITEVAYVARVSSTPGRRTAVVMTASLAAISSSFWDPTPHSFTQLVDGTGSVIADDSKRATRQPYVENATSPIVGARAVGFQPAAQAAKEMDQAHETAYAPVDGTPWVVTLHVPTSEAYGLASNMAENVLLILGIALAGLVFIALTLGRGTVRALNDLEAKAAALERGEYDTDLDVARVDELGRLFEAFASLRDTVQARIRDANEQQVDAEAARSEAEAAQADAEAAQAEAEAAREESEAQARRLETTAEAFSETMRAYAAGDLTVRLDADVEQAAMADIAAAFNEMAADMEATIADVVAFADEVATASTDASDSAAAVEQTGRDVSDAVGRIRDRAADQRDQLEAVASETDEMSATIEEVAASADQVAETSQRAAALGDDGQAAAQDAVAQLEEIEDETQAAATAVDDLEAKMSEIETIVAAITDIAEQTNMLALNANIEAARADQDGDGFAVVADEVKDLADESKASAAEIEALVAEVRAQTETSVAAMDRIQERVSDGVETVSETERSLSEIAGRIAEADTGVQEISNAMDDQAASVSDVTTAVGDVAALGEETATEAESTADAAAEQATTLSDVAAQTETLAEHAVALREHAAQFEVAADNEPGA

T1: CheW1 (Halobacterium salinarum R1 (DSM 671)) (UniProt Q9HQW5)
T1 sequence: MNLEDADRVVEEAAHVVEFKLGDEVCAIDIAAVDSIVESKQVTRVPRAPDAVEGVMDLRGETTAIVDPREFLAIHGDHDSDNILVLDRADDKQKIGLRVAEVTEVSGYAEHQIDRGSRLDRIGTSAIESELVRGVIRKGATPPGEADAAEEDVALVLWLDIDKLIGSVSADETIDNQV

T2: CheY (Halobacterium salinarum R1 (DSM 671)) (UniProt B0R4K1)
T2 sequence: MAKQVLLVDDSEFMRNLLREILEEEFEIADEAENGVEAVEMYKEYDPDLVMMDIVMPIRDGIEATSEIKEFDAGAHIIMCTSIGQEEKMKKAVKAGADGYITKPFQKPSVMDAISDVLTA

T3: CheA (Halobacterium salinarum R1 (DSM 671)) (UniProt B0R4J9)
T3 sequence: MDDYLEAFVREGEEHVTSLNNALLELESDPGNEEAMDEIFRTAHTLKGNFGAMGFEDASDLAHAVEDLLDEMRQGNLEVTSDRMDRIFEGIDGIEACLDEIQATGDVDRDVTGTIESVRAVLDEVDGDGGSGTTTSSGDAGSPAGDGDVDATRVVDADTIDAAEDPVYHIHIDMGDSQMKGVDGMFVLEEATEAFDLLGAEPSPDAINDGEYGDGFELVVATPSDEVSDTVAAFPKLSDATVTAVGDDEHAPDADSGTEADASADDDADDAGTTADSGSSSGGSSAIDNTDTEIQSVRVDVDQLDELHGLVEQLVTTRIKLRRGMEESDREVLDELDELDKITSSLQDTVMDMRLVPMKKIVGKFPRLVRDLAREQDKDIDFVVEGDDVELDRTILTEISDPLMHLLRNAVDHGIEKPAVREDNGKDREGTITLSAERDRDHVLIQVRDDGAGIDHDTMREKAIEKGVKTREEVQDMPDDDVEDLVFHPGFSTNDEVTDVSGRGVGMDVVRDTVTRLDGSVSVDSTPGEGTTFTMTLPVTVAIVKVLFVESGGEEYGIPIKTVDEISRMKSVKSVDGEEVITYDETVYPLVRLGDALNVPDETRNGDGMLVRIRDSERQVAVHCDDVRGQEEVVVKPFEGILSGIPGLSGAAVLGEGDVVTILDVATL

T4: CheW2 (Halobacterium salinarum R1 (DSM 671)) (UniProt Q9HQY8)
T4 sequence: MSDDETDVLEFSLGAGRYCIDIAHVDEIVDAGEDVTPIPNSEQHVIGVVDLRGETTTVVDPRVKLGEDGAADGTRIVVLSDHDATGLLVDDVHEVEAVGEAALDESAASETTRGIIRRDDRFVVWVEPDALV


Tests used:
[1] = biological target: T1, CheW1 (Halobacterium salinarum R1 (DSM 671)); assay: affinity purification with mass spectrometry; comparative two-step bait fishing: CheW1 on one cellulose column with light (12C) lysate, CheW2 on a second column with heavy (13C) lysate, the second CheW as control instead of plain CBD; only the target purified
[2] = biological target: T2, CheY (Halobacterium salinarum R1 (DSM 671)); assay: affinity purification with mass spectrometry; one-step and two-step bait fishing taken together (final data set; both methods applied to all baits); the place does not tell which of the two gave the result
[3] = biological target: T1, CheW1 (Halobacterium salinarum R1 (DSM 671)); assay: as above
[4] = biological target: T3, CheA (Halobacterium salinarum R1 (DSM 671)); assay: affinity purification with mass spectrometry; one-step bait fishing: lysates of the bait-CBD strain (13C6-leucine) and of the bait-control strain without CBD (12C6-leucine) mixed, one cellulose column, CFE buffer (3 M KCl, 1 M NaCl, 400 mM NH4Cl, 40 mM MgCl2, 10 mM Tris/HCl pH 7.5), washes with 0.5% NP40, room temperature; SILAC, association score > 7 counts as interaction
[5] = biological target: T4, CheW2 (Halobacterium salinarum R1 (DSM 671)); assay: affinity purification with mass spectrometry; comparative two-step bait fishing: CheW1 on one cellulose column with light (12C) lysate, CheW2 on a second column with heavy (13C) lysate, the second CheW as control instead of plain CBD; only the target purified
[6] = biological target: T4, CheW2 (Halobacterium salinarum R1 (DSM 671)); assay: affinity purification with mass spectrometry; two-step bait fishing: bait-CBD bound to a cellulose column and stringently washed (CFE + 1% NP40 + 20% ethylene glycol), then incubated with lysate of wild type cells (12C6-leucine); plain CBD column with 13C6-leucine lysate as control; SILAC, association score > 7 counts as interaction; only the target purified
[7] = biological target: OE4643R (Halobacterium salinarum R1 (DSM 671)); assay: affinity purification with mass spectrometry; one-step and two-step bait fishing taken together (final data set; both methods applied to all baits); the place does not tell which of the two gave the result
[8] = biological target: CheD (Halobacterium salinarum R1 (DSM 671)); assay: as above

Molecule | binding [1] | binding [2] | binding [3] | binding [4] | binding [5] | binding [6] | binding [7] | binding [8]
Htr4 (from UniProt B0R470 1-778) (receptor) | binds | binds | binds | binds | binds | binds | – | –
CheF1 (protein, UniProt B0R4J3 1-290) MSESEYKIADGSGKFLQAVKDGRRMKDAQWSKGRILLSNKRIVLAGSEGKRNLPLSEVQGLSGRHDVNQTVAKVGNYVSIRMTNESVMLVSLGDNTETFESKLYGALLDQTELQVKHPAVEGGVVTDEQFERARIKVDESELSVAMSNGSFVSVELDDVGSAEAASLEVNGDTKPVLKVEHTVNRDTSVQTYFATDSHTASILESLLTKEAEKSQGSVELSETEKRVLMALYSGVSSFEIPDFLGMDVDEVESIFERLIEVDVLEEVRKRREVTMKTRGRNIASEAINEE | – | binds | – | – | – | – | – | –
BasT (receptor, UniProt B0R6I4 1-805) MSDIDRGLFERVLPARIRGSYAAKFNVLLLVVVIIVAAAGGYIHLQTQSTVGENTERRVSGIAEQQAATLHDWLTQKESTTTFLASNIGGDAVRTSDVKPQLERQLATLQQDVRAIHVVSTSQDTVVASTDDARSGTTLQAGDAPWLSTIEDGTTDVSVSDPYEVDDSPVVAMTAPTDKPGWVLVMTMSLAQHSQSFNSPIATGDVKVVNGDGVITLDNRNRALLEQYTDTAGNVPAAVATARSGQTVYNTEPERTGMDDGRYATAYTPVAGTDWVLTYHVPRGQAYALQSEVTQNLAGLVVVALVGLLLVGLTVGRRTSSALDELAGVAAAIADGDLDTTIPDTDRTDELGQLVGAFGEMQTYLTTAASQADALADQNFDADVLDEDLPGAFGASLSQMHTRLEALITDLDEAREDAEQTRKDAEEARAASERLNERLERRAAEYSDEMAAAAAGDLTRRLDEDVDSEPMQDIAEAFNDMMGDVEATLAQVRSIADAVDAASTDVSTSAAEIRSASDQVSESVQDISADADQQRDRLGTVGDEVTSLSATVEEIAASADDVAETVNQAATESERGQELGEDAVAELERIEATADSAVERVTALEEAVDAIGDVTGVITDIAEQTNMLALNANIEAARADKSGDGFAVVADEVKDLADEVKESATEIETLVDDVQADVADTVADMSELGDRVDAGSETIEAALAALDDIGDQVEAANGSVQSISDATDEQAASTEEVVTMIDEVTDLSDRTATESQQVSAAAEEQAASVSEVAGRADDLDDQVSTLNDLLDQFDARAASADTDEN | binds | binds | binds | binds | binds | binds | no binding | no binding
CheF2 (protein, UniProt B0R4J4 1-287) MSESAIADFVSSFIPDTATHVEPVRGRVVMSKRRIVLAADDEKTTIPLNGVFDVQHETAPGDLARFFEDTVTIAYEHDEDRHVAVIEGGGSTVDRFVTLVFKALVHGTTVYAKHPARRGGRITDQPFEKGNLALSPGDLTITGDADTTIDLSTVSHFERVDREVNGSNKQLLSVRHMGSTGPITTELALSSGRKMNLLGRYIRLQYTHLKQELADVTLTSEEIEALVAIYSSGPNASLAAVLGVDASRVTMLLNDLIEKELVTDDDGIALTSLGRAAVSEHIEDVNL | – | binds | – | – | – | – | – | –

Now from value to molecule:

binding [1] | binding [2] | binding [3] | binding [4] | binding [5] | binding [6] | binding [7] | binding [8] | Molecule
binds | binds | binds | binds | – | – | – | – | PurNH (OE1620R) (Halobacterium salinarum R1 (DSM 671)) (enzyme)
– | no binding | no binding | binds | – | – | – | – | OE4643R (Halobacterium salinarum R1 (DSM 671))
binds | binds | binds | binds | – | – | no binding | no binding | MpcT (receptor, UniProt B0R367 1-627) MNITQAYKRSLWWSMDMVGATGSVERKMLTAVGLQFLAAGGMAFLTVFTAGTVQLIGVGGMLALSVVAFYNTYLIAEADFVEPLVALEDAADDIAAGEFERADIPSSKRDDEIASLVASFDGMQSNLEVASRQADALARQAFDDPALDESVPGAFGESITEMADSLEAYTAELEDKTAELEHQQAELERQSEQLRALVDALSEATDAARAGDLTATVDAAALDVTDDHRAAVEDFNQLLETLADTISDIQSFSDAVLAVSRTTDERVDAVADRSAAVSESVTEIADGANQQTNQLNNIAAEMDTVSATVEEIAASANDVAKTAQAAADRGEDGRGEVEETIEALRALREQSQAVAETVESLAAEVERIDGITALIEDIAEETNMLALNASIEAARTGSDGDGFAVVADEVKDLAEETREQAADISEIVDAVTEKAEDASIAIGEVDAEVERKITKAEGVLRDFEAIVDEVANVNHAVQEISDATDQGAQSVTDVVGMVEEVASVSEETAAESDTVADNAAEQTDATDEVADQMDELAEQTAALAGMLDDFTVPADAGTADQSVADDSPTAQPPAADDEPAAAVVDQPQPASDAEDEEGVPDSGGESVAVSDGGWADDRSSFTWADSQ
binds | binds | binds | binds | binds | binds | no binding | no binding | HtrI (receptor, UniProt B0R632 1-536) MTIAWARRRYGVKLGLGYIATAGLLVGVGVTTNDVPSTIVAGIAGLLTLGSINAAETVASIKEIAAQTERVANGNLEQEVTSTRTDEFGSLADSIEQMRQSLRGRLNEMERTRADLEETQAEAETAREEAEQAKQEAQAAEREARELAATYQDTAKRYGETMEAAATGDLTQRVDVDTDHEAMETVGTAFNQMMDDLQATVRTVTTVADEIEAKTERMSETSADIEASAGDTVEAVSKIESQANDQRTELDSAADDVQQVSASAEEIAATIDDLASRSEDVATASDAARDSSKSALDEMSSIETEVDDAVGQVEQLRDQVAEITDIVDVITDIGEQTNMLALNASIEAARAGGNADGDGFSVVADEVKDLAEETQDRANEIAAVVEKVTAQTEDVTASIQQTRTRVESGSETVESTLRDIRTIADSIAEVSNSIDEIQRTTSEQAETVQSTATSVERVAGLSDDTTALASDAESAVIGQRESAEEIAASLEQFQNTAVEQLQSRVASFTVATEDSETAGGSVEQPVMRAGADGGGA

These are yes or no findings as the source states them, for the method shown. In cells and extracts the contact can be indirect. Here binding means that the protein was enriched with, or labelled near, the bait; the list need not be complete. For some of these results: No binding means not detected with the bait.
